The values below come from paper PMC5923425, “Structural analysis of human ARS2 as a platform for co-transcriptional RNA sorting” (Nature Communications, 2018).

Amino acid sequences for entries named in this document (tags omitted).
UniProt Q6NZY4: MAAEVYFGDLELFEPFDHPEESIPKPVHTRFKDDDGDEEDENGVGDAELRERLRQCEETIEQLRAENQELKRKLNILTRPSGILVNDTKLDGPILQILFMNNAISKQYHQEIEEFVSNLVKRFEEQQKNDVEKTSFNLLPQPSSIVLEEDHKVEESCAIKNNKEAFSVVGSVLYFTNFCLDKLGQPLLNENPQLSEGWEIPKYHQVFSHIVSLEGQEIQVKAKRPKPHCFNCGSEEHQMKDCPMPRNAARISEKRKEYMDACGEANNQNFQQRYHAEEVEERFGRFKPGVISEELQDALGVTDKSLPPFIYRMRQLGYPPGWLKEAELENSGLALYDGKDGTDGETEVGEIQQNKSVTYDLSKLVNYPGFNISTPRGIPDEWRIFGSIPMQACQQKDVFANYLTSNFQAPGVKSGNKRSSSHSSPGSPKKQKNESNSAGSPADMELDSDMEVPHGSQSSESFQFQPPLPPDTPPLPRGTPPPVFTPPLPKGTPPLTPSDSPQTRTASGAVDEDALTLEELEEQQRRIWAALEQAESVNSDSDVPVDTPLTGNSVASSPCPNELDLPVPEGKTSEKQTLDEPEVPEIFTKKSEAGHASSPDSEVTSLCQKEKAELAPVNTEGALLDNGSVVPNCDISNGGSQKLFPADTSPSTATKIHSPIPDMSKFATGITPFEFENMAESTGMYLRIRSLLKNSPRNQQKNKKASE
UniProt Q06265: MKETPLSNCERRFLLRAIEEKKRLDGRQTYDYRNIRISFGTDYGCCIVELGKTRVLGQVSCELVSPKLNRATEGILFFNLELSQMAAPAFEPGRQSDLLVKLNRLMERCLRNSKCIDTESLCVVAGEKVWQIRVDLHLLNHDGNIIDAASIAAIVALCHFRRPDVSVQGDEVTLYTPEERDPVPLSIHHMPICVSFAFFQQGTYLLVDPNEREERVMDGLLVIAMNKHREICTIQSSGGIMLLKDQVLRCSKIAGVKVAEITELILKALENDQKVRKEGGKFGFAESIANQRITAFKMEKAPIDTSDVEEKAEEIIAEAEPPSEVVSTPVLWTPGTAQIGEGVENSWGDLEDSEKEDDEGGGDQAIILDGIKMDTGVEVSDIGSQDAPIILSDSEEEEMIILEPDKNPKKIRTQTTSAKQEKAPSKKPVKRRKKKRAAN
UniProt Q9Y580: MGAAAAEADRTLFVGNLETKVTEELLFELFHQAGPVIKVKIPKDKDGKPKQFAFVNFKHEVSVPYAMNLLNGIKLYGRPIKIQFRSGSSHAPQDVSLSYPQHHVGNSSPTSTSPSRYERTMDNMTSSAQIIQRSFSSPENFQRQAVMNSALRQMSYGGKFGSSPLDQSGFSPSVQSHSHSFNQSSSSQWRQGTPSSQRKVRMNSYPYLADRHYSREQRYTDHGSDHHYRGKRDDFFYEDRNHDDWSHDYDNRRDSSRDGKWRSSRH
UniProt O60293: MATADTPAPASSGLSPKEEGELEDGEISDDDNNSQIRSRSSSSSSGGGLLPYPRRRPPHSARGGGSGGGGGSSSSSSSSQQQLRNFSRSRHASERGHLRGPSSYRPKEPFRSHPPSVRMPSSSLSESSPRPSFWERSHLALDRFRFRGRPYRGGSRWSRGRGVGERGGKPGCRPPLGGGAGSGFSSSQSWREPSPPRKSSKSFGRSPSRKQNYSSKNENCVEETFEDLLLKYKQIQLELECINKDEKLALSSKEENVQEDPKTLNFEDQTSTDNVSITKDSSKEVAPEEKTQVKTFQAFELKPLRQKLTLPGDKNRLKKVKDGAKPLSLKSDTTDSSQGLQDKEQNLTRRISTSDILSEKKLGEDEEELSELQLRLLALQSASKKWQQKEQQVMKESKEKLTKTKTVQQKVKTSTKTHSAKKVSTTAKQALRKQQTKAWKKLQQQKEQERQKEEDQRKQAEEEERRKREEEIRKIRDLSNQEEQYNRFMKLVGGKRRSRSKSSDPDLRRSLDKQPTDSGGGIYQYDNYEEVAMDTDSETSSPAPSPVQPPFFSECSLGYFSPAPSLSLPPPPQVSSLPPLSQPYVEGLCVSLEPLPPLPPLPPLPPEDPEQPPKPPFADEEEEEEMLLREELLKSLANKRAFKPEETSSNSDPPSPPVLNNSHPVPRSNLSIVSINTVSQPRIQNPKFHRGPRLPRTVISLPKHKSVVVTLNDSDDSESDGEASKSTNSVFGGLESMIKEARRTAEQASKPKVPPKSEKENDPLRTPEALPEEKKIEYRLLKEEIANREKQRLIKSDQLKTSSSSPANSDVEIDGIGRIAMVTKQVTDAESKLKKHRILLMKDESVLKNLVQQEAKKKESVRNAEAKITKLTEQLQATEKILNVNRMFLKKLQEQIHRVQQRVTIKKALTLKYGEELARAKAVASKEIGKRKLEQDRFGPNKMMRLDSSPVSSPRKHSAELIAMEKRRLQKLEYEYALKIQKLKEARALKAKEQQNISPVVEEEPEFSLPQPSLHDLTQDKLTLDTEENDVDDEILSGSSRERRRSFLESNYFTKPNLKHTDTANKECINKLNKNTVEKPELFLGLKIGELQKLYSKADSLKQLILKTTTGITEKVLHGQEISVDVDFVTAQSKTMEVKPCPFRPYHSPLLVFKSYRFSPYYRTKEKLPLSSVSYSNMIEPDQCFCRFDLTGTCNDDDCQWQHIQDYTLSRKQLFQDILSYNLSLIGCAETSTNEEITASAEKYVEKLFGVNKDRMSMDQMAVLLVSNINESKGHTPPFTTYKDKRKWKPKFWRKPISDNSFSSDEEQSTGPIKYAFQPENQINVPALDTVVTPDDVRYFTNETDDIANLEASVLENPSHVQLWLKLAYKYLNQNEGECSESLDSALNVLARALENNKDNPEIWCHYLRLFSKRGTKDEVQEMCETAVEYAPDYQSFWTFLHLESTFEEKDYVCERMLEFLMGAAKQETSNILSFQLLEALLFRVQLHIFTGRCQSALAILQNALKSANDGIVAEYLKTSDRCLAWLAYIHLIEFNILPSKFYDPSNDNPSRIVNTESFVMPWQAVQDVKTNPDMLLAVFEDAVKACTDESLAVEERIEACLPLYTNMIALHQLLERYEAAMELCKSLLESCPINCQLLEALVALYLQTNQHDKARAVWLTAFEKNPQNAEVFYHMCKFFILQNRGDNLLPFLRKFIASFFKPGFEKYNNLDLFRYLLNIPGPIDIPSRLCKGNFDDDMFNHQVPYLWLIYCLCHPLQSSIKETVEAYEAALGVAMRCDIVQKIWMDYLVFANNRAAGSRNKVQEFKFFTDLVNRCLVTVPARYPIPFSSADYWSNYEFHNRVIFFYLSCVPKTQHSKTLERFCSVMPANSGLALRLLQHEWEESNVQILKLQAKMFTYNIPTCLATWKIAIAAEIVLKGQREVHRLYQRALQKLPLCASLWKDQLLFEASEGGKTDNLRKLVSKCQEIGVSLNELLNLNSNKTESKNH
UniProt Q16630: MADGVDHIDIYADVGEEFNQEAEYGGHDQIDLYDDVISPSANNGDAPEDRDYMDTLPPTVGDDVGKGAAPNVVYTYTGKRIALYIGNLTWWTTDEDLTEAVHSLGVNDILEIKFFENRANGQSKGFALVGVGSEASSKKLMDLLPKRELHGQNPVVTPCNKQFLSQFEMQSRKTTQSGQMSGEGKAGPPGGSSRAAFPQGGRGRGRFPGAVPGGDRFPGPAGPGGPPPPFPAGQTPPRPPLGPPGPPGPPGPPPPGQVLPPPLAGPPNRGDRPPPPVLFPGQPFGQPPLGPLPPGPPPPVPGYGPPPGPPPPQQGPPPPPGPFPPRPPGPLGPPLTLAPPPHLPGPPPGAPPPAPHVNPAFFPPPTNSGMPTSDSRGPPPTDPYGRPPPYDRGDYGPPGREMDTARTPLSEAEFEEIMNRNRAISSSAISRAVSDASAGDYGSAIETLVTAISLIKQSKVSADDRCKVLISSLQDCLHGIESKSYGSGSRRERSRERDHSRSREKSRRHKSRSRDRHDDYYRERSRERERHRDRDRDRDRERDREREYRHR
UniProt Q5TA45: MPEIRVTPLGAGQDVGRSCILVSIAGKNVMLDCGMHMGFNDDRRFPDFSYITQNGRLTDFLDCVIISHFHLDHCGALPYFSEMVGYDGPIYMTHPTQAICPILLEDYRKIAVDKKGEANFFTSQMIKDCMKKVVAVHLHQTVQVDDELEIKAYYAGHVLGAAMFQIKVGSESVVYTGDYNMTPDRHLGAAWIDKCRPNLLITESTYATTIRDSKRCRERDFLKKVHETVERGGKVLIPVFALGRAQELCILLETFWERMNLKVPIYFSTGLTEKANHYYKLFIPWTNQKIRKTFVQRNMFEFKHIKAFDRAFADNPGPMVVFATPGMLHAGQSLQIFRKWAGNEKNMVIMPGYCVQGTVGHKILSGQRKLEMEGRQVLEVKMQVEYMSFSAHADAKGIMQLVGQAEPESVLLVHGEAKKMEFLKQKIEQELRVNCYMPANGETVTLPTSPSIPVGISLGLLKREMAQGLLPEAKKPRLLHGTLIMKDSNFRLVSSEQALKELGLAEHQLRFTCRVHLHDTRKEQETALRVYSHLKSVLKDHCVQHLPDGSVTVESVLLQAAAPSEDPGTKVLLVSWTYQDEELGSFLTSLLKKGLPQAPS

Sequences and labels used below:
T1: EGFP–ARS2 wt (human) (UniProt Q9BXP5)
T1 sequence: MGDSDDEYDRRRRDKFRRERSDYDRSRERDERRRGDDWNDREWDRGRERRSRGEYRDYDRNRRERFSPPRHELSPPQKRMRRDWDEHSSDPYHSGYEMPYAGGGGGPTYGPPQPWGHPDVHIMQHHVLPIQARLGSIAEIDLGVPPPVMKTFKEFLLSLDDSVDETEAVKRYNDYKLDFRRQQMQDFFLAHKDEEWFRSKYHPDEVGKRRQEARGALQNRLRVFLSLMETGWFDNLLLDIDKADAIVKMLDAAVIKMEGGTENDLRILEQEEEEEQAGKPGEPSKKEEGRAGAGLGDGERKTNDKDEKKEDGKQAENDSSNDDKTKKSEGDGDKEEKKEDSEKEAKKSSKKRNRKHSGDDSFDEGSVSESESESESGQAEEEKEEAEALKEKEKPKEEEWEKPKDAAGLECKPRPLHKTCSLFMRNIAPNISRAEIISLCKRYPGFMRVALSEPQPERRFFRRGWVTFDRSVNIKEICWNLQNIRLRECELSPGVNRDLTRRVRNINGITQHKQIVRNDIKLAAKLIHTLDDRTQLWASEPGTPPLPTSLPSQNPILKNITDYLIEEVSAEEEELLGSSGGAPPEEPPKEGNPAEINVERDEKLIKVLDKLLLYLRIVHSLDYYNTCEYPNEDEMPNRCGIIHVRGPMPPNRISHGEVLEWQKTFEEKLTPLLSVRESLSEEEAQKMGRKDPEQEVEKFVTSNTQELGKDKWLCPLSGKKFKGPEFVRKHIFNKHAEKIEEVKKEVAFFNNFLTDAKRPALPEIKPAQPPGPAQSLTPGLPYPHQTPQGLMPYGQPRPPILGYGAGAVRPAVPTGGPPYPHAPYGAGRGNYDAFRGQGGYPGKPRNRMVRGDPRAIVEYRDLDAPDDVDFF

B1: THRAP3 (protein, UniProt Q9Y2W1 1-955)
chain: MSKTNKSKSGSRSSRSRSASRSRSRSFSKSRSRSRSLSRSRKRRLSSRSRSRSYSPAHNRERNHPRVYQNRDFRGHNRGYRRPYYFRGRNRGFYPWGQYNRGGYGNYRSNWQNYRQAYSPRRGRSRSRSPKRRSPSPRSRSHSRNSDKSSSDRSRRSSSSRSSSNHSRVESSKRKSAKEKKSSSKDSRPSQAAGDNQGDEAKEQTFSGGTSQDTKASESSKPWPDATYGTGSASRASAVSELSPRERSPALKSPLQSVVVRRRSPRPSPVPKPSPPLSSTSQMGSTLPSGAGYQSGTHQGQFDHGSGSLSPSKKSPVGKSPPSTGSTYGSSQKEESAASGGAAYTKRYLEEQKTENGKDKEQKQTNTDKEKIKEKGSFSDTGLGDGKMKSDSFAPKTDSEKPFRGSQSPKRYKLRDDFEKKMADFHKEEMDDQDKDKAKGRKESEFDDEPKFMSKVIGANKNQEEEKSGKWEGLVYAPPGKEKQRKTEELEEESFPERSKKEDRGKRSEGGHRGFVPEKNFRVTAYKAVQEKSSSPPPRKTSESRDKLGAKGDFPTGKSSFSITREAQVNVRMDSFDEDLARPSGLLAQERKLCRDLVHSNKKEQEFRSIFQHIQSAQSQRSPSELFAQHIVTIVHHVKEHHFGSSGMTLHERFTKYLKRGTEQEAAKNKKSPEIHRRIDISPSTFRKHGLAHDEMKSPREPGYKAEGKYKDDPVDLRLDIERRKKHKERDLKRGKSRESVDSRDSSHSRERSAEKTEKTHKGSKKQKKHRRARDRSRSSSSSSQSSHSYKAEEYTEETEEREESTTGFDKSRLGTKDFVGPSERGGGRARGTFQFRARGRGWGRGNYSGNNNNNSNNDFQKRNREEEWDPEYTPKSKKYYLHDDREGEGSDKWVSRGRGRGAFPRGRGRFMFRKSSTSPKWAHDKFSGEEGEIEDDESGTENREEKDNIQPTTE
B2: TRA2B (protein, UniProt P62995 1-288)
chain: MSDSGEQNYGERESRSASRSGSAHGSGKSARHTPARSRSKEDSRRSRSKSRSRSESRSRSRRSSRRHYTRSRSRSRSHRRSRSRSYSRDYRRRHSHSHSPMSTRRRHVGNRANPDPNCCLGVFGLSLYTTERDLREVFSKYGPIADVSIVYDQQSRRSRGFAFVYFENVDDAKEAKERANGMELDGRRIRVDFSITKRPHTPTPGIYMGRPTYGSSRRRDYYDRGYDRGYDDRDYYSRSYRGGGGGGGGWRAAQDRDQIYRRRSPSPYYSRGGYRSRSRSRSYSPRRY
B3: EXOSC10 (protein, UniProt Q01780 1-885)
chain: MAPPSTREPRVLSATSATKSDGEMVLPGFPDADSFVKFALGSVVAVTKASGGLPQFGDEYDFYRSFPGFQAFCETQGDRLLQCMSRVMQYHGCRSNIKDRSKVTELEDKFDLLVDANDVILERVGILLDEASGVNKNQQPVLPAGLQVPKTVVSSWNRKAAEYGKKAKSETFRLLHAKNIIRPQLKFREKIDNSNTPFLPKIFIKPNAQKPLPQALSKERRERPQDRPEDLDVPPALADFIHQQRTQQVEQDMFAHPYQYELNHFTPADAVLQKPQPQLYRPIEETPCHFISSLDELVELNEKLLNCQEFAVDLEHHSYRSFLGLTCLMQISTRTEDFIIDTLELRSDMYILNESLTDPAIVKVFHGADSDIEWLQKDFGLYVVNMFDTHQAARLLNLGRHSLDHLLKLYCNVDSNKQYQLADWRIRPLPEEMLSYARDDTHYLLYIYDKMRLEMWERGNGQPVQLQVVWQRSRDICLKKFIKPIFTDESYLELYRKQKKHLNTQQLTAFQLLFAWRDKTARREDESYGYVLPNHMMLKIAEELPKEPQGIIACCNPVPPLVRQQINEMHLLIQQAREMPLLKSEVAAGVKKSGPLPSAERLENVLFGPHDCSHAPPDGYPIIPTSGSVPVQKQASLFPDEKEDNLLGTTCLIATAVITLFNEPSAEDSKKGPLTVAQKKAQNIMESFENPFRMFLPSLGHRAPVSQAAKFDPSTKIYEISNRWKLAQVQVQKDSKEAVKKKAAEQTAAREQAKEACKAAAEQAISVRQQVVLENAAKKRERATSDPRTTEQKQEKKRLKISKKPKDPEPPEKEFTPYDYSQSDFKAFAGNSKSKVSSQFDPNKQTPSGKKCIAAKKIKQSVGNKSMSFPTGKSDRGFRYNWPQR
B4: PABPN1 (protein, UniProt Q86U42 1-306)
chain: MAAAAAAAAAAGAAGGRGSGPGRRRHLVPGAGGEAGEGAPGGAGDYGNGLESEELEPEELLLEPEPEPEPEEEPPRPRAPPGAPGPGPGSGAPGSQEEEEEPGLVEGDPGDGAIEDPELEAIKARVREMEEEAEKLKELQNEVEKQMNMSPPPGNAGPVIMSIEEKMEADARSIYVGNVDYGATAEELEAHFHGCGSVNRVTILCDKFSGHPKGFAYIEFSDKESVRTSLALDESLFRGRQIKVIPKRTNRPGISTTDRGFPRARYRARTTNYNSSRSRFYSGFNSRPRGRVYRGRARATSWYSPY
B5: TRA2A (protein, UniProt Q13595 1-282)
chain: MSDVEENNFEGRESRSQSKSPTGTPARVKSESRSGSRSPSRVSKHSESHSRSRSKSRSRSRRHSHRRYTRSRSHSHSHRRRSRSRSYTPEYRRRRSRSHSPMSNRRRHTGSRANPDPNTCLGVFGLSLYTTERDLREVFSRYGPLSGVNVVYDQRTGRSRGFAFVYFERIDDSKEAMERANGMELDGRRIRVDYSITKRAHTPTPGIYMGRPTHSGGGGGGGGGGGGGGGGRRRDSYYDRGYDRGYDRYEDYDYRYRRRSPSPYYSRYRSRSRSRSYSPRRY

Results are given in words; binding and its absence hold for the method and conditions named. Binding seen in cells or lysates may run through a third protein. Here binding means that the protein was enriched with, or labelled near, the bait; the list need not be complete. Tags and fused reporters may be left off the sequences shown.

The test deals with T1, EGFP–ARS2 wt (human). Kind of test: affinity purification with mass spectrometry; EGFP-tagged ARS2 constructs expressed in HEK 293T/17, lysis in 20 mM HEPES pH 7.4, 120 mM NaCl, 0.1% Triton X-100 with RNase H, GFP-Trap beads, TMT labelling, LC–MS/MS; controls EGFP and pcDNA3.1.
ZCCHC8 (from UniProt Q6NZY4 1-707): the binding entry is recorded as “binds”.
As to EXOSC9 (from UniProt Q06265 1-439), the binding entry is recorded as “binds”.
For RBM7 (from UniProt Q9Y580 1-266) the value was “binds”.
Regarding ZFC3H1 (from UniProt O60293 1-1989), the binding result is on record as “binds”.
Next, CPSF6 (from UniProt Q16630 1-551): “binds”; CPSF3L (from UniProt Q5TA45 1-600): “binds”; B1: “binds”.
Next, B2: “binds”; B3: “binds”.
For B4 the value was “binds”.
Turning to B5, the binding result was “binds”.
